Our source for the T/C and survivor count values is PubChem BioAssay AID330 (DTP/NCI, 2004).

The list shows only some results of the screen, not a fair sample: it gathers tests that were run many times, whatever their T/C, doses with no T/C, and many T/C values between a quarter and a half above the control. Further doses and runs are listed elsewhere. T/C gives the treated animals as a percentage of the vehicle group. Some entries give survivors of the animals treated and no T/C: the source files T/C as zero there, which appears to mark a toxic dose or a test without result, not a measured value. Some doses without a T/C left all or most animals alive at the check, yet need not have been tolerated: the source hardly ever lists a survival T/C far under the control, and the zero likely stands for such cases as well. Counts of survivors are from the toxicity check (mostly the fifth day) where no day follows; animals may have died later. Schedules are NCI's codes, taken here to give the interval after Q, in days (D) or hours (H), and the number of doses after X. Some entries hold several experiments; their values stand side by side, smallest first. For survival time, this PubChem deposit counts one and a half times the control or more as active, and values a quarter to a half above the control carry no call in these data; other NCI protocols may use other cut-offs. Some T/C values are followed by the survivors on the day toxicity was checked, most often the fifth; without a count, all were alive then.

The assay concerns P388 leukemia ip, CD2F1 mice, survival T/C. Briefly: NCI In Vivo Anticancer Drug Screen. Data for tumor model P388 Leukemia (intraperitoneal) in CD2F1 (CDF1) mice. The conditions noted are these: T/C endpoint: median survival time, higher T/C = longer survival.
Setting [1] is: dose: 200.0 mg/kg/injection, schedule: Q01DX009 (ip), vehicle: saline with Tween-80.
Setting [2] is: dose: 240.0 mg/kg/injection, schedule: Q01DX005 (ip), vehicle: saline with Tween-80.
Where [3] appears, read: dose: 200.0 mg/kg/injection, schedule: Q01DX005 (ip), vehicle: Klucel (hydroxypropylcellulose) (HPC).

On to `C/C(=N\N=C(/[Se])N1CC2CCC(CC2)C1)c1ccccn1`, for which the T/C was 125 % of control (dose: 3.12 mg/kg/injection, schedule: Q01DX009 (ip), vehicle: Klucel (hydroxypropylcellulose) (HPC)); 129 and 133 % of control (dose: 6.25 mg/kg/injection, schedule: Q01DX009 (ip), vehicle: Klucel (hydroxypropylcellulose) (HPC)). Moreover, the survivor count is, setting by setting: (dose: 12.5 mg/kg/injection, schedule: Q01DX009 (ip), vehicle: Klucel (hydroxypropylcellulose) (HPC)) 5 of 6; (dose: 25.0 mg/kg/injection, schedule: Q01DX009 (ip), vehicle: Klucel (hydroxypropylcellulose) (HPC)) 5 of 6; (dose: 50.0 mg/kg/injection, schedule: Q01DX009 (ip), vehicle: Klucel (hydroxypropylcellulose) (HPC)) 2 of 6 and 5 of 6; (dose: 100.0 mg/kg/injection, schedule: Q01DX009 (ip), vehicle: Klucel (hydroxypropylcellulose) (HPC)) 0 of 6; (dose: 200.0 mg/kg/injection, schedule: Q01DX009 (ip), vehicle: Klucel (hydroxypropylcellulose) (HPC)) 0 of 6.
`CC1=C(C)C(=O)O[C@@H]([C@](C)(O)[C@]2(O)CC[C@@]3(O)[C@@H]4C[C@H]5O[C@]56[C@@H](O)C=CC(=O)[C@]6(C)[C@H]4CC[C@]23C)C1`: the T/C (dose: 8.0 mg/kg/injection, schedule: Q01DX005 (ip), vehicle: saline) is 125 % of control; the T/C (dose: 8.0 mg/kg/injection, schedule: Q01DX009 (ip), vehicle: saline) was 132 % of control; the T/C (dose: 16.0 mg/kg/injection, schedule: Q01DX005 (ip), vehicle: distilled water + Tween-80) was 125 % of control; the T/C (dose: 32.0 mg/kg/injection, schedule: Q01DX005 (ip), vehicle: saline) is 125 % of control. For the same compound, the survivor count reads like this: (dose: 32.0 mg/kg/injection, schedule: Q01DX005 (ip), vehicle: distilled water + Tween-80) 3 of 6; (dose: 64.0 mg/kg/injection, schedule: Q01DX005 (ip), vehicle: distilled water + Tween-80) 1 of 6; (dose: 64.0 mg/kg/injection, schedule: Q01DX009 (ip), vehicle: saline) 2 of 6.
For the compound `CCC(=O)N(C)[C@@H](C)C(=O)O[C@H]1CC(=O)N(C)c2cc(cc(OC)c2Cl)C/C(C)=C/C=C[C@@H](OC)[C@@]2(O)C[C@H](OC(=O)N2)[C@@H](C)[C@@H]2O[C@@]12C`, the T/C runs as follows: (dose: 0.4 micrograms/kg/injection, schedule: Q01DX009 (ip), vehicle: saline) 130 % of control; (dose: 0.8 micrograms/kg/injection, schedule: Q01DX009 (ip), vehicle: saline) 136 % of control; (dose: 1.6 micrograms/kg/injection, schedule: Q01DX009 (ip), vehicle: saline) 142 % of control; (dose: 12.5 micrograms/kg/injection, schedule: Q01DX009 (ip), vehicle: saline + alcohol) 126 % of control. Besides, the survivor count reads like this: (dose: 25.0 micrograms/kg/injection, schedule: Q01DX009 (ip), vehicle: saline + alcohol) 10 of 10; (dose: 50.0 micrograms/kg/injection, schedule: Q01DX009 (ip), vehicle: saline + alcohol) 7 of 10; (dose: 100.0 micrograms/kg/injection, schedule: Q01DX009 (ip), vehicle: saline + alcohol) 7 of 10; (dose: 200.0 micrograms/kg/injection, schedule: Q01DX009 (ip), vehicle: saline + alcohol) 5 of 10.
`CC(C)[S][Pb]([c]1ccccc1)([c]1ccccc1)[c]1ccccc1`: the survivor count by setting is: (dose: 10.0 mg/kg/injection, schedule: Q01DX009 (ip), vehicle: gum acacia) 5 of 6; (dose: 20.0 mg/kg/injection, schedule: Q01DX009 (ip), vehicle: gum acacia) 0 of 6; (dose: 25.0 mg/kg/injection, schedule: Q04DX003 (ip), vehicle: gum acacia) 6 of 6.
For `CN=C(NC)c1cccc(NC(=O)/C=C\c2ccc(/C=C/C(=O)Nc3cccc(C(=NC)NC)c3)cc2)c1`, the T/C is, setting by setting: (dose: 3.13 mg/kg/injection, schedule: Q01DX005 (ip), vehicle: saline with Tween-80) 130 % of control; (dose: 6.25 mg/kg/injection, schedule: Q01DX005 (ip), vehicle: saline with Tween-80) 138 and 143 % of control [4 of 6 alive]. For the same compound, the survivor count was 0 of 6 (dose: 12.5 mg/kg/injection, schedule: Q01DX005 (ip), vehicle: saline with Tween-80); 0 of 6 (dose: 25.0 mg/kg/injection, schedule: Q01DX005 (ip), vehicle: saline with Tween-80); 0 of 6 (dose: 50.0 mg/kg/injection, schedule: Q01DX005 (ip), vehicle: saline with Tween-80); 0 of 6 (dose: 100.0 mg/kg/injection, schedule: Q01DX005 (ip), vehicle: saline with Tween-80); 0 of 6 (dose: 200.0 mg/kg/injection, schedule: Q01DX005 (ip), vehicle: saline with Tween-80).
Consider `Cc1cc(N)ccc1-n1cnc2c1c(=O)n(C)c(=O)n2C`, for which the survivor count (dose: 200.0 mg/kg/injection, schedule: Q01DX005 (ip), vehicle: water) was 2 of 5.
On to `Cc1ccc(NCCNCCO)c2c(=O)c3ccc(O)cc3sc12`, for which the T/C runs as follows: (dose: 12.5 mg/kg/injection, schedule: Q01DX009 (ip), vehicle: saline with Tween-80) 130 % of control; (dose: 25.0 mg/kg/injection, schedule: Q01DX009 (ip), vehicle: saline with Tween-80) 133 % of control; (dose: 50.0 mg/kg/injection, schedule: Q01DX009 (ip), vehicle: saline with Tween-80) 146 % of control. The survivor count under setting [1] was 4 of 6.
Consider `Clc1ccc(Cc2nc3ccccc3s2)cc1`, for which the survivor count under setting [2] is 3 of 6.
Regarding `CCOC(=O)C12CC(COc3ccc([N+](=O)[O-])cc3)ON1OC(COc1ccc([N+](=O)[O-])cc1)C2` (centres undefined), the survivor count is 6 of 6 (dose: 120.0 mg/kg/injection, schedule: Q01DX005 (ip), vehicle: saline with Tween-80) and 6 of 6 under setting [2].
On to `c1c[n+](CC2CO2)ccc1-c1cc[n+](CC2CO2)cc1` (centres undefined), for which the T/C (dose: 20.0 mg/kg/injection, schedule: Q01DX009 (ip), vehicle: Klucel (hydroxypropylcellulose) (HPC)) was 138 % of control.
With `NC(=O)c1ccccc1OC(=O)Nc1ccc(F)cc1`, the survivor count under setting [2] is 2 of 6.
Take `CCOC(=O)N1C(C(=O)c2ccc(C)cc2)N(C2CCCCC2)C(c2ccccc2)N1C(=O)OCC` (centres undefined): the survivor count reads like this: (dose: 100.0 mg/kg/injection, schedule: Q01DX009 (ip), vehicle: saline with Tween-80) 6 of 6; under setting [1], 6 of 6.
With `C[N+]12CN3CN(CP(C3)C1)C2`, the survivor count by setting is: (dose: 50.0 mg/kg/injection, schedule: Q01DX009 (ip), vehicle: saline) 3 of 6; (dose: 100.0 mg/kg/injection, schedule: Q01DX009 (ip), vehicle: saline) 0 of 6; (dose: 200.0 mg/kg/injection, schedule: Q01DX009 (ip), vehicle: saline) 0 of 6.
As to `COc1ccc2c(ccc3oc([N+](=O)[O-])cc32)c1`, the T/C (dose: 50.0 mg/kg/injection, schedule: Q01DX005 (ip), vehicle: Klucel (hydroxypropylcellulose) (HPC)) is 142 % of control; the T/C (dose: 100.0 mg/kg/injection, schedule: Q01DX005 (ip), vehicle: Klucel (hydroxypropylcellulose) (HPC)) was 132 and 135 % of control; the T/C under setting [3] is 144 % of control. Moreover, the survivor count by setting is: under setting [3], 6 of 6; (dose: 400.0 mg/kg/injection, schedule: Q01DX005 (ip), vehicle: Klucel (hydroxypropylcellulose) (HPC)) 6 of 6.
`CC(=O)OC(C)(C)/C=C/C(=O)[C@](C)(O)[C@H]1[C@H](O)C[C@@]2(C)[C@@H]3CC=C4[C@@H](C[C@H](O)C(=O)C4(C)C)[C@]3(C)C(=O)C[C@]12C`: the survivor count (dose: 4.0 mg/kg/injection, schedule: Q01DX009 (ip), vehicle: saline with Tween-80) was 4 of 6.
In the case of `CCOP(=S)(N1CC1(C)C)N1CC1(C)C` (centres undefined), the survivor count is, setting by setting: under setting [1], 4 of 6; (dose: 400.0 mg/kg/injection, schedule: Q01DX009 (ip), vehicle: saline with Tween-80) 1 of 6; (dose: 600.0 mg/kg/injection, schedule: Q04DX003 (ip), vehicle: saline with Tween-80) 5 of 6. In addition, for the setting “dose: 200.0 mg/kg/injection, schedule: Q04DX003 (ip), vehicle: saline with Tween-80”, the T/C is 127 % of control.
Regarding `CC(C)(C)CC(C)(C)c1ccc(O)cc1`, the T/C was 127 % of control (dose: 100.0 mg/kg/injection, schedule: Q01DX009 (ip), vehicle: saline sonified) and 127 % of control (dose: 400.0 mg/kg/injection, schedule: Q01DX009 (ip), vehicle: saline sonified).
